Results are given in words; binding and its absence hold for the method and conditions named. In cells and extracts the contact can be indirect. Here binding means that the protein was enriched with, or labelled near, the bait; the list need not be complete.
Target: Hspb1 (mouse (endogenous in primary acinar cells and 266-6 cells)) (UniProt P14602)
Assay: affinity purification with mass spectrometry; anti-Hspb1 antibody immunoprecipitation from primary acinar cells treated with 100 nM caerulein for 6 hours; precipitate analysed by mass spectrometry

The chains behind the UniProt entries cited, without tags or fusion partners.
UniProt P14602: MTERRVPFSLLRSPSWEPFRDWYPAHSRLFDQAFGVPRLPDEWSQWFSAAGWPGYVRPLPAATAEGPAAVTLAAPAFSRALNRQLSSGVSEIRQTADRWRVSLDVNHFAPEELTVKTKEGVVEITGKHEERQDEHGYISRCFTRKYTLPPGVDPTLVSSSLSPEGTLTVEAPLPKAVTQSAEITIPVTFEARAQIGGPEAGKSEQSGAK
UniProt P07356: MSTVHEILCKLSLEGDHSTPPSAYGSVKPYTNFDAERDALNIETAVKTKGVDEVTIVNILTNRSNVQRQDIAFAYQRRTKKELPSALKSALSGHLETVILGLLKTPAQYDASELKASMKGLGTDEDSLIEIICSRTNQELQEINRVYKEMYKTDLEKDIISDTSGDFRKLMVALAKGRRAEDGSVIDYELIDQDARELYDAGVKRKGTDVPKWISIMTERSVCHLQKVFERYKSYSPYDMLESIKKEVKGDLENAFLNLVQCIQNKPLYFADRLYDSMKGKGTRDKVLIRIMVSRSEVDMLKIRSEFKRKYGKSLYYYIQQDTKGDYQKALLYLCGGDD

Anxa2 (from UniProt P07356 1-339)
binding: binds

From paper PMC10929186
